Assay results reported in publication PMC8104389.
No constants are given. Whether binding was seen depends on the method and setting. In cells and extracts the contact can be indirect. Some binding calls cover weakened binding; strength is not graded here.

By UniProt entry, the sequences of proteins in these tests, tags left out.
UniProt O09106: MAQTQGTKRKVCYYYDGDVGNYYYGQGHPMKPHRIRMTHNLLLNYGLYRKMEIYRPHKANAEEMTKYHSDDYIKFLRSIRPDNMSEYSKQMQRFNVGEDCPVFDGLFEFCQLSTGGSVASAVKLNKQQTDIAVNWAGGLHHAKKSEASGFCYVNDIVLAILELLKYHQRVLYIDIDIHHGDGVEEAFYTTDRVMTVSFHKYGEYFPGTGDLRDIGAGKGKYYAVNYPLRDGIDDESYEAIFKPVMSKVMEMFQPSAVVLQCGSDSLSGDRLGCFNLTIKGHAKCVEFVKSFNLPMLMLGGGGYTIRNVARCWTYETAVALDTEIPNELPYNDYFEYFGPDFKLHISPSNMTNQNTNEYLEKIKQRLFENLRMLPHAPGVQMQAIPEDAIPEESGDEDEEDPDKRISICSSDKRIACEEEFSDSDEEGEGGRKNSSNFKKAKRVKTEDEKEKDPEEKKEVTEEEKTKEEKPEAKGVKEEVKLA

Biological target: histone deacetylase 1 (HDAC1), endogenous in mouse testis (mouse (endogenous in testis)) (UniProt O09106)
Experiment: co-IP; testis lysate; IP with an anti-HDAC1 antibody, immunoblot for KCTD19; NP40 lysis buffer, 1 h at 4°C

B1: potassium channel tetramerization domain containing 19 (KCTD19), endogenous in mouse testis (protein, UniProt Q562E2-2 1-950)
chain: MEEPGGLHESAEDLFHFNVGGWHFSVPRSKLAQFPDSLLWKEASALTSSENQRLFIDRDGSTFRHVHYYLYTSKLSFSSCAELNLLYEQALGLQLMPLLQTLDNLKEGRHHLRVRPADIPVAERASLNYWRTWKCISKPSDFPIKSPAFTGLHDKAPLGLMDTPLLDTEEEVHYCFLPLDLVAKYPSLVTEDNLLWLAETVALIECECSEFRFIVNFLRSHKILLPDNFSNIDVLEAEVEILEIPELTEAVRLYRMNMALQPALPGPKGSQLSLEQEEPSLGGCSRTSCPPLSPGKGGRTASVESVKPLYLMALGLLVKYPDSALGQLRIESTLDGSRLYITGNGALFQHVRNWLGTCRLPLTETISEVYELCAFLDKRDITYEPMKVALKTHLEPRTLLPVDVLSEEWTAEVTIYSPQQIIKLYVGSHWYATTLQTLMKYPELLSNTQRVYWIAYGQTLLIHGDGQMFRHILNFLRLGKLFLPSEFKEWPLFCQEVEEYHIPALSEALAQCEAYKSWTQEKESENEEAFPIRKLHVVTEGTGPMAEFSRDAKETTACMPVDFQECSDRTPWNKAKGNLTRSSQMEEAEQYTRTIQVSLCRNAKRGGNPSTYSHCSGLCANPRHWGGHSESPPKKKCTTINLTQKPDAKDPPVTPMQKLISLVREWDMVNCKQWEFQPLPASRSSSVEEASLHVPSGSEAAPQPGTSAAWKAHSITSEKDAGPQTGPGAGVKDKGPEPTFKPYFPTKRAITLKDWGKQRPKDRESPAPEQPLPNANGTDNPGAILKVAHPPVVGNDGSCMFFEDSIIYTTQMDNIKHTSLTASPQLREVTFLSFSLSWEEMFYAQKCHRFLTDIILDSIRQKDPKAITAKVVSLAYRLWTLNISPKQFVVDLLAIAGFKDDRHTQERLYSWVELTLPFARKYGRCVDLLIQRGLSRSVSYSVLGKYLHEG
binding: binds
